PubChem BioAssay AID1508587, Peter MacCallum Cancer Centre – 2020

- Test: 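Retest of knockdowns boosting BRAF inhibitor action on lactate release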 (follow-up of hits)
- Cell system: human WM266.4 melanoma cells with a BRAF V600 mutation
- Knock-down reagent: single siRNA against human genes, 25 nM
- Time to read-out: 96 h
- Conditions: vemurafenib 300 nM (about IC25), given 48 h after transfection for 48 h
- Read-out: 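Medium lactate read by absorbance over DAPI-counted nuclei; ratio with versus without vemurafenib, set against non-targeting siRNA, averaged over 2 replicates; cell number also recorded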
- Scale: lactate per cell, drug vs no drug: higher = less drug-induced drop in lactate per cell
- Hit rule: 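Enhancer call for any duplex whose drug versus no-drug per-cell lactate ratio is below 0.55 (2 SD beneath non-targeting average); genes confirmed when at least 2 of their 4 duplexes qualify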
This is an unselected part of about 1,600 deposited reagents. In the full data, 623 (39%) were called active. 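Calls are for each duplex; lactate ratios contain extreme outliers.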 Entries without a mark were called inactive. The numbers tell different reagents against one gene apart. Not all columns of the deposit are shown.

RPS6KB2 #1: lactate per cell, drug vs no drug = 0.51 (active)
RPS6KB2 #2: lactate per cell, drug vs no drug = 0.64
RPS6KB2 #3: lactate per cell, drug vs no drug = 0.42 (active)
RPS6KB2 #4: lactate per cell, drug vs no drug = 0.75
LRCH3 #1: lactate per cell, drug vs no drug = 0.96
LRCH3 #2: lactate per cell, drug vs no drug = 0.39 (active)
LRCH3 #3: lactate per cell, drug vs no drug = 0.5 (active)
LRCH3 #4: lactate per cell, drug vs no drug = 0.38 (active)
SEC61A1 #1: lactate per cell, drug vs no drug = 0.24 (active)
SEC61A1 #2: lactate per cell, drug vs no drug = 0.68
SEC61A1 #3: lactate per cell, drug vs no drug = 0.59
SEC61A1 #4: lactate per cell, drug vs no drug = 0.64
ATP5PD #1: lactate per cell, drug vs no drug = 0.65
ATP5PD #2: lactate per cell, drug vs no drug = 0.83
ATP5PD #3: lactate per cell, drug vs no drug = 0.73
ATP5PD #4: lactate per cell, drug vs no drug = 0.47 (active)

2 neighbouring entries already listed, for reference:
LRCH3 #1: lactate per cell, drug vs no drug = 0.96
LRCH3 #2: lactate per cell, drug vs no drug = 0.39 (active)

Next reagents follow:
POM121L12 #1: lactate per cell, drug vs no drug = 0.44 (active)
POM121L12 #2: lactate per cell, drug vs no drug = 0.56
POM121L12 #3: lactate per cell, drug vs no drug = 0.86
POM121L12 #4: lactate per cell, drug vs no drug = 0.72
IPO9 #1: lactate per cell, drug vs no drug = 0.71
IPO9 #2: lactate per cell, drug vs no drug = 0.53 (active)
IPO9 #3: lactate per cell, drug vs no drug = 0.52 (active)
IPO9 #4: lactate per cell, drug vs no drug = 0.73
TMEM184A #1: lactate per cell, drug vs no drug = 0.56
TMEM184A #2: lactate per cell, drug vs no drug = 1.07
TMEM184A #3: lactate per cell, drug vs no drug = 0.71
TMEM184A #4: lactate per cell, drug vs no drug = 0.57
